Where a name gives a salt, the structure may show the parent alone. This is one part of the list. The calls rarely recur for the same compound in another form.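 Kinases, fused to nanoluciferase, were expressed in K562 cells; luminescence was measured every 4 h from 2 to 18 h as percent of control (DMSO = 100%, positive control = 0%). A time point is decreased if signal falls significantly (2 sigma). Hits were called by the authors by a rule that is not shown; the count of time points alone does not decide it.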
Key:
Assay in all cases: kinase-Nluc reporter destabilization hit call (1 = scored as downregulated) (binary); higher = compound decreases kinase abundance
Settings in all cases: K562; 2-18 h
EGFR = EGFR (UniProt P00533)
EGFR_G719S = EGFR_G719S (UniProt P00533)
EGFR_G719S_T790M = EGFR_G719S_T790M (UniProt P00533)
EGFR_L718V = EGFR_L718V (UniProt P00533)
EGFR_L858R = EGFR_L858R (UniProt P00533)
EGFR_L861Q = EGFR_L861Q (UniProt P00533)
EGFR_T790M = EGFR_T790M (UniProt P00533)
EPHA2 = EPHA2 (UniProt P29317)
ERBB3 = ERBB3 (UniProt P21860)
[1] = molecular target: ERBB4_R711C (clone: ERBB4_mut) (UniProt Q15303)

Protein sequences, listed by entry. Tags and fused reporters are not part of them.
UniProt P29317, whole entry: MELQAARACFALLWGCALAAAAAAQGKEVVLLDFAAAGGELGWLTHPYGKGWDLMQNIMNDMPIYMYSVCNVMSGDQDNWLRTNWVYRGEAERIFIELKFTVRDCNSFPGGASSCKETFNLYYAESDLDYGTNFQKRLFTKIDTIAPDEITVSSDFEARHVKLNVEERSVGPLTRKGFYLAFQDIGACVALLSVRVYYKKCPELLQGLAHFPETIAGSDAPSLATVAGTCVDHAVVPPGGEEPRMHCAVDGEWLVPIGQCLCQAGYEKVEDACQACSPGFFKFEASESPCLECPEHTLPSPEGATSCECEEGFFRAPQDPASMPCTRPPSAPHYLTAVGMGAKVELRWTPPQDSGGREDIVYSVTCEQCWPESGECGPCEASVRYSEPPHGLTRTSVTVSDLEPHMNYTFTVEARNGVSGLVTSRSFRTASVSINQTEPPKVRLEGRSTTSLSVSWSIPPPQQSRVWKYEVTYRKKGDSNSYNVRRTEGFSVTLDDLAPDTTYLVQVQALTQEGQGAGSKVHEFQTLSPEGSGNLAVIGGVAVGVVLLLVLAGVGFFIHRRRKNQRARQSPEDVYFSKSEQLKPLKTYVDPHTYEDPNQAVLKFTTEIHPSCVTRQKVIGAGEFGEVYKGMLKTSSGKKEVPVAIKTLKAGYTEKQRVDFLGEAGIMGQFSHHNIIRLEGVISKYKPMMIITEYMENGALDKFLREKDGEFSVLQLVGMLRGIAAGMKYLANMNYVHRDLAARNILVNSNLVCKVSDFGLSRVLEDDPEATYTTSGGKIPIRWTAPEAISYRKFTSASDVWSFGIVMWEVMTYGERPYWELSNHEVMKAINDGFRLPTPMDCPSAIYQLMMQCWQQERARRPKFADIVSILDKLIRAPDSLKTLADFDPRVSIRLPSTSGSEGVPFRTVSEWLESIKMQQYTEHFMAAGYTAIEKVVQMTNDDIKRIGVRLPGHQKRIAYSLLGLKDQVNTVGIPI
UniProt P21860, whole entry: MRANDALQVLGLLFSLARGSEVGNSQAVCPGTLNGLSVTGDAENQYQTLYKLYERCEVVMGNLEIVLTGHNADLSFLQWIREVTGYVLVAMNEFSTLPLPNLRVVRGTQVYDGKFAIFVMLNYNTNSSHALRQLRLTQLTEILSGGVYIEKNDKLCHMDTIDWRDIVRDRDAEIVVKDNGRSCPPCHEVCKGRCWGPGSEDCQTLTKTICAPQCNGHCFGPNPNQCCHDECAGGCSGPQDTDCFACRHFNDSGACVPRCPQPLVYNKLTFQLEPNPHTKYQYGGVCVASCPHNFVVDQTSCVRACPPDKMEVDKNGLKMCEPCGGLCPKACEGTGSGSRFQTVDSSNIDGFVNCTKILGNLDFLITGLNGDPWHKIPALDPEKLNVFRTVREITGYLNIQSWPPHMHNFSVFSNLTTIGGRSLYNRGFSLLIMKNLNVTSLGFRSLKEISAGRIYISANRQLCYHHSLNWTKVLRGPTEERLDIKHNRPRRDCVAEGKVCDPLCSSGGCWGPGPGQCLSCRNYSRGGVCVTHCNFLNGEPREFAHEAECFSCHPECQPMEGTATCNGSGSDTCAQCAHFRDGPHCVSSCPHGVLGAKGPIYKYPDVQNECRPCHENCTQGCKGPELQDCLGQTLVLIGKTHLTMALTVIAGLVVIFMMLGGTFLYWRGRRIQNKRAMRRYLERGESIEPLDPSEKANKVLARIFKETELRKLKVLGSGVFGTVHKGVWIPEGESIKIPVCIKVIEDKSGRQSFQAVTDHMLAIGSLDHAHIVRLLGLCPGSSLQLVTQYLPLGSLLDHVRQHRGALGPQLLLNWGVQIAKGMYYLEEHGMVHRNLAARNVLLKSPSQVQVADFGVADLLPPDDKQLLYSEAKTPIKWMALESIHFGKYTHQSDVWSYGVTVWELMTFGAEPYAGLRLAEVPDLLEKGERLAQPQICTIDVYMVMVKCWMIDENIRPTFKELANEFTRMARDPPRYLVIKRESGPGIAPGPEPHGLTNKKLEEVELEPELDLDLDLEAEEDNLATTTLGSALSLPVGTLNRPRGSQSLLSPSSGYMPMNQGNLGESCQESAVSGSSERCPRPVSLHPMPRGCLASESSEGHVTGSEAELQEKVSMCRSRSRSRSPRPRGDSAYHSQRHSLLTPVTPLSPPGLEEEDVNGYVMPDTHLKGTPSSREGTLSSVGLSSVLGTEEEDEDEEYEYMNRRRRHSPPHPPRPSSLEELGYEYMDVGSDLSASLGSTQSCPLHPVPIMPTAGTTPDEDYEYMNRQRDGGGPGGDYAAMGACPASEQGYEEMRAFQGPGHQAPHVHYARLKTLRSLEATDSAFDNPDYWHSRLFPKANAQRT
UniProt Q15303, whole entry R711C: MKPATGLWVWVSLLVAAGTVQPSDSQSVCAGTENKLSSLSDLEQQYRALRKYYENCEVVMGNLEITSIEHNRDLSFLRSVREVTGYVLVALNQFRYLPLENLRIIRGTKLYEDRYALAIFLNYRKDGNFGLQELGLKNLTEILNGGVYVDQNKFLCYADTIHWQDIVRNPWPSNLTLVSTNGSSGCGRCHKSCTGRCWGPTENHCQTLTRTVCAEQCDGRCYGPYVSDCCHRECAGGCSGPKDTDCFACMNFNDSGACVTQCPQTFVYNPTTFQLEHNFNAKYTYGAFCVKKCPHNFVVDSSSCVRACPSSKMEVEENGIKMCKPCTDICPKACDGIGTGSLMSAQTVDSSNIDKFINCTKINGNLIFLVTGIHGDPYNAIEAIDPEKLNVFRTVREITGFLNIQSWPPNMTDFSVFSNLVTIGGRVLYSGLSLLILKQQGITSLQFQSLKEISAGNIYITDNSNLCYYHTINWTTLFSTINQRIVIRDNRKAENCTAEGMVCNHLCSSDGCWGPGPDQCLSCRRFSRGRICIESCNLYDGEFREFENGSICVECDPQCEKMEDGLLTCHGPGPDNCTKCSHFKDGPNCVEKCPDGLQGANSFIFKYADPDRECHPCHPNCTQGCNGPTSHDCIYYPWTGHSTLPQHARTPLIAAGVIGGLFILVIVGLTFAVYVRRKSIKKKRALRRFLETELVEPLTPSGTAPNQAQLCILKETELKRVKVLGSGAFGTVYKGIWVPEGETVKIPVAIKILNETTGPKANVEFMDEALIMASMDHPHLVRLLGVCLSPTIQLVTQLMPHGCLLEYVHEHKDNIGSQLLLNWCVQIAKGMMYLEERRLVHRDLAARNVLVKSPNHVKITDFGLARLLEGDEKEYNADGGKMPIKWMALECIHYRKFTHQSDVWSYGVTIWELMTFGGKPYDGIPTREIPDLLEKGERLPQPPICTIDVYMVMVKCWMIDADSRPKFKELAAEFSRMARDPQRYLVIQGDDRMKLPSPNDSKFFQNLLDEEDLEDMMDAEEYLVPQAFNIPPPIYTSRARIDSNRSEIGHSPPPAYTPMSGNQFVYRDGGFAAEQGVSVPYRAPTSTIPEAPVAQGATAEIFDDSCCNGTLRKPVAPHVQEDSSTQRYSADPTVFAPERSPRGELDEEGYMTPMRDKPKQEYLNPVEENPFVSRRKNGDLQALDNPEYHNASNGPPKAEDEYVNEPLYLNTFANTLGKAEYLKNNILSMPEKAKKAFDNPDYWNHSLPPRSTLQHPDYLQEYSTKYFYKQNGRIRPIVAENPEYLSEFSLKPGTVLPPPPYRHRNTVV

Measured: kinase-Nluc reporter destabilization hit call

CC#CC(=O)N[C@H]1CCCN(c2c(F)cc(C(N)=O)c3[nH]c(C)c(C)c23)C1 [Branebrutinib] (10 µM)
inactive: EGFR 0 | EGFR_G719S 0 | EGFR_G719S_T790M 0 | EGFR_L718V 0 | EGFR_L858R 0 | EGFR_L861Q 0 | EGFR_T790M 0 | EPHA2 = 0 | ERBB3 = 0 | [1] 0

COc1ccc(Oc2cc(NCCC(F)(F)F)c3ncc(-c4ccc(C(=O)NC5CC5)c(C)c4)n3n2)c(F)c1F (2.5 µM)
inactive: EGFR 0 | EGFR_G719S 0 | EGFR_G719S_T790M 0 | EGFR_L718V 0 | EGFR_L858R 0 | EGFR_L861Q 0 | EGFR_T790M 0 | EPHA2 = 0 | ERBB3 = 0 | [1] 0

Cc1cccc([C@@H](CO)NC(=O)[C@@H](C)N2Cc3ccc(-c4nc(NC5CCOCC5)ncc4Cl)cc3C2=O)c1 [ERK1/2 inhibitor 1] (10 µM)
inactive: EGFR 0 | EGFR_G719S 0 | EGFR_G719S_T790M 0 | EGFR_L718V 0 | EGFR_L858R 0 | EGFR_L861Q 0 | EGFR_T790M 0 | EPHA2 = 0 | ERBB3 = 0 | [1] 0

COCCOc1cc2nccc(Nc3n[nH]c(C)c3C)c2cc1S(=O)(=O)C(C)(C)C [RIP2 kinase inhibitor 2] (2.5 µM)
inactive: EGFR 0 | EGFR_G719S 0 | EGFR_G719S_T790M 0 | EGFR_L718V 0 | EGFR_L858R 0 | EGFR_L861Q 0 | EGFR_T790M 0 | EPHA2 = 0 | ERBB3 = 0 | [1] 0

Cc1nc(-c2cnc(NC(C)C)n(C)c2=O)ccc1Oc1ccnc(-c2cnn(C)c2)c1 (2.5 µM)
inactive: EGFR 0 | EGFR_G719S 0 | EGFR_G719S_T790M 0 | EGFR_L718V 0 | EGFR_L858R 0 | EGFR_L861Q 0 | EGFR_T790M 0 | EPHA2 = 0 | ERBB3 = 0 | [1] 0

O=c1oc2c(C3OCCCO3)c(O)ccc2c2c1CNCC2 (10 µM)
inactive: EGFR 0 | EGFR_G719S 0 | EGFR_G719S_T790M 0 | EGFR_L718V 0 | EGFR_L858R 0 | EGFR_L861Q 0 | EGFR_T790M 0 | EPHA2 = 0 | ERBB3 = 0 | [1] 0

O=C1NC(=NCc2cccs2)S/C1=C\c1ccc2ncccc2c1 (10 µM)
inactive: EGFR 0 | EGFR_G719S 0 | EGFR_G719S_T790M 0 | EGFR_L718V 0 | EGFR_L858R 0 | EGFR_L861Q 0 | EGFR_T790M 0 | EPHA2 = 0 | ERBB3 = 0 | [1] 0

COc1cc(C(=O)NC2CCN(C)CC2)c(F)cc1Nc1ncc2c(n1)N(C1CCCC1)CC(F)(F)C(=O)N2C [TAK-960 (dihydrochloride)] (2.5 µM)
inactive: EGFR 0 | EGFR_G719S 0 | EGFR_G719S_T790M 0 | EGFR_L718V 0 | EGFR_L858R 0 | EGFR_L861Q 0 | EGFR_T790M 0 | EPHA2 = 0 | ERBB3 = 0 | [1] 0

COc1cc(OC)c(F)c(COc2cnc(Nc3cnn(CCO)c3)nc2)c1F (2.5 µM)
inactive: EGFR 0 | EGFR_G719S 0 | EGFR_G719S_T790M 0 | EGFR_L718V 0 | EGFR_L858R 0 | EGFR_L861Q 0 | EGFR_T790M 0 | EPHA2 = 0 | ERBB3 = 0 | [1] 0

C=CC(=O)Nc1cccc(Nc2nc(Nc3ccc(OCCOC)cc3)ncc2F)c1 [Spebrutinib] (10 µM)
inactive: EGFR 0 | EGFR_G719S 0 | EGFR_G719S_T790M 0 | EGFR_L718V 0 | EGFR_L858R 0 | EGFR_L861Q 0 | EGFR_T790M 0 | EPHA2 = 0 | ERBB3 = 0 | [1] 0

Cc1c(NC(=O)c2cc3c(s2)CCCC3)cccc1-c1cn(C)c(=O)c(Nc2ccc([C@@H]3C(=O)N(C)CCN3C)cc2)n1 (10 µM)
inactive: EGFR 0 | EGFR_G719S 0 | EGFR_G719S_T790M 0 | EGFR_L718V 0 | EGFR_L858R 0 | EGFR_L861Q 0 | EGFR_T790M 0 | EPHA2 = 0 | ERBB3 = 0 | [1] 0

C=CC(=O)N1C[C@H](Nc2ncnc3[nH]ccc23)CC[C@@H]1C [Ritlecitinib] (10 µM)
inactive: EGFR 0 | EGFR_G719S 0 | EGFR_G719S_T790M 0 | EGFR_L718V 0 | EGFR_L858R 0 | EGFR_L861Q 0 | EGFR_T790M 0 | EPHA2 = 0 | ERBB3 = 0 | [1] 0

CC(=O)N1CCN(c2ccc(OCC3COC(Cn4ccnc4)(c4ccc(Cl)cc4Cl)O3)cc2)CC1 (stereo not given) [Ketoconazole] (2.5 µM)
inactive: EGFR 0 | EGFR_G719S 0 | EGFR_G719S_T790M 0 | EGFR_L718V 0 | EGFR_L858R 0 | EGFR_L861Q 0 | EGFR_T790M 0 | EPHA2 = 0 | ERBB3 = 0 | [1] 0

COc1cc(C(=O)NC2CCN(C)CC2)ccc1Nc1ncc2c(n1)N(C1CCCC1)CC(F)(F)C(=O)N2C (10 µM)
inactive: EGFR 0 | EGFR_G719S 0 | EGFR_G719S_T790M 0 | EGFR_L718V 0 | EGFR_L858R 0 | EGFR_L861Q 0 | EGFR_T790M 0 | EPHA2 = 0 | ERBB3 = 0 | [1] 0

Cc1c[nH]c(/C=C2\C(=O)Nc3ccccc32)c1CCC(=O)O (10 µM)
inactive: EGFR 0 | EGFR_G719S 0 | EGFR_G719S_T790M 0 | EGFR_L718V 0 | EGFR_L858R 0 | EGFR_L861Q 0 | EGFR_T790M 0 | EPHA2 = 0 | ERBB3 = 0 | [1] 0

CC(C)(C)c1cc(NC(=O)Nc2ccc(-c3cn4c(n3)sc3cc(OCCN5CCOCC5)ccc34)cc2)no1 [Quizartinib] (10 µM)
inactive: EGFR 0 | EGFR_G719S 0 | EGFR_G719S_T790M 0 | EGFR_L718V 0 | EGFR_L858R 0 | EGFR_L861Q 0 | EGFR_T790M 0 | EPHA2 = 0 | ERBB3 = 0 | [1] 0

2 entries picked at random from those above, as already listed:
CC(C)(C)c1cc(NC(=O)Nc2ccc(-c3cn4c(n3)sc3cc(OCCN5CCOCC5)ccc34)cc2)no1 [Quizartinib] (10 µM)
inactive: EGFR 0 | EGFR_G719S 0 | EGFR_G719S_T790M 0 | EGFR_L718V 0 | EGFR_L858R 0 | EGFR_L861Q 0 | EGFR_T790M 0 | EPHA2 = 0 | ERBB3 = 0 | [1] 0

COc1cc(C(=O)NC2CCN(C)CC2)ccc1Nc1ncc2c(n1)N(C1CCCC1)CC(F)(F)C(=O)N2C (10 µM)
inactive: EGFR 0 | EGFR_G719S 0 | EGFR_G719S_T790M 0 | EGFR_L718V 0 | EGFR_L858R 0 | EGFR_L861Q 0 | EGFR_T790M 0 | EPHA2 = 0 | ERBB3 = 0 | [1] 0

Next part.

CN1CCN(c2ccc(C(=O)Nc3n[nH]c4ccc(Cc5cc(F)cc(F)c5)cc34)c(NC3CCOCC3)c2)CC1 [Entrectinib] (2.5 µM)
inactive: EGFR 0 | EGFR_G719S 0 | EGFR_G719S_T790M 0 | EGFR_L718V 0 | EGFR_L858R 0 | EGFR_L861Q 0 | EGFR_T790M 0 | EPHA2 = 0 | ERBB3 = 0 | [1] 0

CC1(C)CC=C(c2nc(C3CC(C)(C)OC(C)(C)C3)ccc2NC(=O)c2nc(C#N)c[nH]2)CC1 [Edicotinib] (2.5 µM)
inactive: EGFR 0 | EGFR_G719S 0 | EGFR_G719S_T790M 0 | EGFR_L718V 0 | EGFR_L858R 0 | EGFR_L861Q 0 | EGFR_T790M 0 | EPHA2 = 0 | ERBB3 = 0 | [1] 0

Nc1nc(OCC2CCCCC2)c2[nH]cnc2n1 (10 µM)
inactive: EGFR 0 | EGFR_G719S 0 | EGFR_G719S_T790M 0 | EGFR_L718V 0 | EGFR_L858R 0 | EGFR_L861Q 0 | EGFR_T790M 0 | EPHA2 = 0 | ERBB3 = 0 | [1] 0

Oc1cc(O)cc(/C=C/c2ccc(O)c(O)c2)c1 [Piceatannol] (10 µM)
inactive: EGFR 0 | EGFR_G719S 0 | EGFR_G719S_T790M 0 | EGFR_L718V 0 | EGFR_L858R 0 | EGFR_L861Q 0 | EGFR_T790M 0 | EPHA2 = 0 | ERBB3 = 0 | [1] 0

Cn1c(=O)n(-c2ccc(C(C)(C)C#N)cc2)c2c3cc(-c4cnc5ccccc5c4)ccc3ncc21 [Dactolisib (Tosylate)] (10 µM)
inactive: EGFR 0 | EGFR_G719S 0 | EGFR_G719S_T790M 0 | EGFR_L718V 0 | EGFR_L858R 0 | EGFR_L861Q 0 | EGFR_T790M 0 | EPHA2 = 0 | ERBB3 = 0 | [1] 0

CN(C)C(=O)/C(C#N)=C/c1ccc(-c2nc3cnc4[nH]ccc4c3n2C2CCCCC2)o1 (10 µM)
inactive: EGFR 0 | EGFR_G719S 0 | EGFR_G719S_T790M 0 | EGFR_L718V 0 | EGFR_L858R 0 | EGFR_L861Q 0 | EGFR_T790M 0 | EPHA2 = 0 | ERBB3 = 0 | [1] 0

CN1CCN(c2ccc(Nc3cc(-c4cccc(-n5ccc6cc(C7CC7)cc(F)c6c5=O)c4CO)cn(C)c3=O)nc2)CC1 (2.5 µM)
inactive: EGFR 0 | EGFR_G719S 0 | EGFR_G719S_T790M 0 | EGFR_L718V 0 | EGFR_L858R 0 | EGFR_L861Q 0 | EGFR_T790M 0 | EPHA2 = 0 | ERBB3 = 0 | [1] 0

CCN(CCCOc1ccc2c(Nc3cc(CC(=O)Nc4cccc(F)c4)[nH]n3)ncnc2c1)CCOP(=O)(O)O [Barasertib] (10 µM)
inactive: EGFR 0 | EGFR_G719S 0 | EGFR_G719S_T790M 0 | EGFR_L718V 0 | EGFR_L858R 0 | EGFR_L861Q 0 | EGFR_T790M 0 | EPHA2 = 0 | ERBB3 = 0 | [1] 0

CN(C)CCOc1ccc(-c2nc(-c3ccncc3)c(-c3ccc4c(c3)CC/C4=N\O)[nH]2)cc1 (10 µM)
inactive: EGFR 0 | EGFR_G719S 0 | EGFR_G719S_T790M 0 | EGFR_L718V 0 | EGFR_L858R 0 | EGFR_L861Q 0 | EGFR_T790M 0 | EPHA2 = 0 | ERBB3 = 0 | [1] 0

NS(=O)(=O)c1ccc(Nc2nc(OCC3CCCCC3)c3[nH]cnc3n2)cc1 (10 µM)
inactive: EGFR 0 | EGFR_G719S 0 | EGFR_G719S_T790M 0 | EGFR_L718V 0 | EGFR_L858R 0 | EGFR_L861Q 0 | EGFR_T790M 0 | EPHA2 = 0 | ERBB3 = 0 | [1] 0

Source: the supplement of paper PMC12823440, “Inhibitors supercharge kinase turnover through native proteolytic circuits” (Nature, 2025)
